# Some of the results follow.
# Assay: induction of myeloid progenitor differentiation, primary screen, cell-based, flow cytometry, MLPCN library (AID 624256);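 further: cells exposed to compound for four days before flow analysis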
# Settings: ER-HoxA9 myeloid progenitors, lysozyme-GFP differentiation, measured here: differentiation confirmed by MAC1 staining, at 10 µM, stronger effect = higher value
row,SMILES,GFP+ MAC1+ double positive [%]
1,CCOC(=O)c1ccc(NP(C)(=O)Oc2ccc(F)cc2)cc1 (stereo unspecified),0.1
2,O=P1(N(CCCl)CCCl)OCCC2CCCCN21 (stereo unspecified),0.8
3,CCN(CC)CCCOC(=O)C(O)(c1ccccc1)C1CCCCC1 (stereo unspecified),0.9
4,CCC(=O)N1C2C3N(C(=O)CC)C1C1N(C(=O)CC)C(C(N1C(=O)CC)N3C(=O)CC)N2C(=O)CC,1.2
5,O=C(OC1CN2CCC1CC2)c1ccccc1 (stereo unspecified),0.5
6,CC(=O)NC(SC(=S)N(CC(C)C)CC(C)C)C(Cl)(Cl)Cl (stereo unspecified),0.2
7,Cc1ccc(OP(=O)(Nc2ccccn2)Oc2ccc(C)cc2)cc1,0.2
8,Cc1c([N+](=O)[O-])cc([N+](=O)[O-])c(Br)c1[N+](=O)[O-],0.7
9,COC(=O)c1cc2c(s1)N=C(c1ccccc1)N(C)P2(=O)N1CCOCC1 (stereo unspecified),0.7
10,O=[N+]([O-])c1cc([N+](=O)[O-])c(OC2CCCCC2O)c([N+](=O)[O-])c1 (stereo unspecified),0.8
11,CCCCCOc1ccc(NP(C)(=O)Oc2ccc(Cl)cc2Cl)cc1 (stereo unspecified),1.4
12,CN(C)C(=O)Oc1noc2ccccc12,0.5
13,CC(NC(=O)COC(=O)C(O)(c1ccccc1)c1ccccc1)c1ccccc1 (stereo unspecified),0.7
14,Cc1ccccc1OP(=O)(Nc1ccccn1)Oc1ccccc1C,1
15,CP(=O)(Nc1ccccc1)Oc1ccc(F)cc1 (stereo unspecified),11.6
16,O=P(Nc1ccccn1)(c1ccc(Br)cc1)c1ccc(Br)cc1,0.4
17,CN(C)C1(CNC(=O)c2ccc(Cl)c(S(N)(=O)=O)c2)CCCCC1,0.3
18,COc1ccc(N)c([N+](=O)[O-])c1[N+](=O)[O-],1.2
19,COc1ccc(OP(C)(=O)Nc2cccc(Br)c2)cc1 (stereo unspecified),0.2
20,COc1ccc(NP(C)(=O)Oc2ccccc2OC)cc1 (stereo unspecified),0.7
21,C[C@H]1OP(=O)(Oc2ccccc2)[C@H](O)[C@H](O)[C@H]1N=[N+]=[N-] (stereo partly specified),2.1

row,SMILES,GFP+ MAC1+ double positive [%]
1,CN(C)CCOC(=O)C(O)(c1ccccc1)C1CCCCC1 (stereo unspecified),0.9
2,O=P(Nc1nc2ccccc2s1)(c1ccccc1)c1ccccc1,0.7
3,Cc1cc(-c2cccc3ccccc23)c(C)cn1.O=[N+]([O-])c1cc([N+](=O)[O-])c(O)c([N+](=O)[O-])c1,0.6
4,O=[As](O)(c1ccccc1)c1ccc(O)cc1,0.7
5,O=[N+]([O-])c1ccc(O)c(/C=N/Nc2ccc([N+](=O)[O-])cc2[N+](=O)[O-])c1,0.1
6,O=[N+]([O-])c1ccc(OP2(=O)COCCO2)cc1 (stereo unspecified),0.3
7,CC(=O)NC(SC(=S)N(C)C)C(Cl)(Cl)Cl (stereo unspecified),0.3
8,O=[N+]([O-])c1ncn(CCn2cnc([N+](=O)[O-])n2)n1,0.5
9,O=C(OC1CN2CCC1CC2)c1cccc(Cl)c1 (stereo unspecified),0.4
10,C(Cc1nn[nH]n1)Cc1nn[nH]n1,0.7
11,Nc1ccc([As](=O)(O)c2ccc([N+](=O)[O-])cc2)cc1,0.8
12,Cc1c(C(c2ccc3c(c2)OCO3)c2c(C)n(C)n(-c3ccccc3)c2=O)c(=O)n(-c2ccccc2)n1C.O=[N+]([O-])c1cc([N+](=O)[O-])c(O)c([N+](=O)[O-])c1,0.4
13,CC(C)C(=O)NC(Sc1ccccc1)C(Cl)(Cl)Cl (stereo unspecified),0.4
14,O=P(Nc1nccs1)(c1ccccc1)c1ccccc1,0.3
15,CP(=O)(Nc1ccc(SC(F)(F)F)cc1)Oc1ccc(F)cc1 (stereo unspecified),0.4
16,c1nnnn1CCn1cnnn1,1.4
17,CCOP(C)(=S)SCC(=O)NC(C)(CC)C(=O)O (stereo unspecified),0.2
18,CP(=O)(Nc1ccc2c(c1)OCCO2)Oc1ccccc1 (stereo unspecified),1
19,O=[N+]([O-])c1cc([N+](=O)[O-])c(C(F)(F)F)c([N+](=O)[O-])c1O,1
20,Cc1ccccc1NP(C)(=O)Nc1ccccc1C,0.1

# Source: PubChem BioAssay AID624256 (NMMLSC, 2012)
